Measurements from patent US20160046678A1 (ZYNGENIA, published 2016).
Results are given in words; binding and its absence hold for the method and conditions named. Some binding calls cover weakened binding; strength is not graded here.

The binders below were run against EGFR (UniProt P00533) (assay: peptide screen, Example 48).

binding, binds:
YAEHCSLFPTDWICSLMP [EGA801]
YAEHCSYFPTDWICTLRT [EGA775]
YAEHCFQFPHDWICSLMT [EGA779]
YQEHCWRFPNDWICSLLP [EGA780]
YAEHCWMFPTDWICSLNR [EGA788]
YAEHCSHFWTDWICTLST [EGA767]
YAEHCNMFPTDWICTLME [EGA785]
YLDHCRLFPTDWICSLLP [EGA776]
LSDPCYWTTWGKECFLLR [EGA818]
YADHCRLFPTDWICTLVT [EGA790]
YAEHCSFFPADWICTLIP [EGA786]
YAEHCWQFPADWICTLLP [EGA798]
YAEHCRQFPADWICTLMT [EGA792]
YPEHCWQFPGDWICTLLT [EGA789]
LPEGCWWALWGRECLLLP [EGA811]
YVEHCRLFPCDWICSLMI [EGA777]
YAEHCRLFPGDWICTLST [EGA781]
LPDGCTWMVWGRECFLLP [EGA807]
YAEHCLQFPADWICTLRT [EGA773]
LPEPCWWAPWGRECLLLP [EGA804]
LAEHCYLFPCDWICSLLT [EGA796]
YAEHCSQFPTDWICTLLT [EGA795]
YAEHCSMFPSDWICSLMT [EGA782]
KCNFNPWKAACG [EGA810]
YAEHCWQFPSDWICSLIE [EGA766]
YAGHCALFPSDWICSLLP [EGA774]
LLDACWWATWGKECIWRN [EGA812]
YEEHCWLFPSDWICSLRQ [EGA802]
LPQGCWWAVWGKECHLLP [EGA805]
YAEHCWHFPTDWICTLRS [EGA783]
LTYVCWWNMWGYECLPYE [EGA813]
YAEHCWLFPKDWICTLDM [EGA770]
LPGGCWWAVWGRECQLLP [EGA808]
YAEHCRLFPSDWICSLVT [EGA791]
YREHCSLFPNDWICTLMP [EGA799]
YAEHCRQFPSDWICTLLS [EGA768]
LIAPCYWTIWGKECFILD [EGA816]
HPDDCWWALWGRECLLLP [EGA809]
YAAHCSLFPTDWICTLMP [EGA769]
LPAPCYWTTWGKECFIVP [EGA815]
LPDGCWWAQWGRECLLKP [EGA814]
HPDNCWWAVWGRECLLLP [EGA817]
LYDTCYWTTWGKECLMPR [EGA806]
LTAPCYWTTWGKECLLLR [EGA819]
YSEHCWMFPSDWICTLME [EGA793]
YAEHCGLFPGDWICTLKN [EGA784]
